Laboratory results reported in publication PMC11082164.
No constants are given. Whether binding was seen depends on the method and setting. Binding seen in cells or lysates may run through a third protein. Here binding means that the protein was enriched with, or labelled near, the bait; the list need not be complete.

Target: GFP-BIN1 isoform 8 (human)
Assay: affinity purification with mass spectrometry; GFP-Trap from HeLa cells transfected with GFP or GFP-BIN1; hits selected by Mascot score

B1: dynamin 1 (endogenous, HeLa) (protein, UniProt Q05193 1-864)
chain: MGNRGMEDLIPLVNRLQDAFSAIGQNADLDLPQIAVVGGQSAGKSSVLENFVGRDFLPRGSGIVTRRPLVLQLVNATTEYAEFLHCKGKKFTDFEEVRLEIEAETDRVTGTNKGISPVPINLRVYSPHVLNLTLVDLPGMTKVPVGDQPPDIEFQIRDMLMQFVTKENCLILAVSPANSDLANSDALKVAKEVDPQGQRTIGVITKLDLMDEGTDARDVLENKLLPLRRGYIGVVNRSQKDIDGKKDITAALAAERKFFLSHPSYRHLADRMGTPYLQKVLNQQLTNHIRDTLPGLRNKLQSQLLSIEKEVEEYKNFRPDDPARKTKALLQMVQQFAVDFEKRIEGSGDQIDTYELSGGARINRIFHERFPFELVKMEFDEKELRREISYAIKNIHGIRTGLFTPDMAFETIVKKQVKKIREPCLKCVDMVISELISTVRQCTKKLQQYPRLREEMERIVTTHIREREGRTKEQVMLLIDIELAYMNTNHEDFIGFANAQQRSNQMNKKKTSGNQDEILVIRKGWLTINNIGIMKGGSKEYWFVLTAENLSWYKDDEEKEKKYMLSVDNLKLRDVEKGFMSSKHIFALFNTEQRNVYKDYRQLELACETQEEVDSWKASFLRAGVYPERVGDKEKASETEENGSDSFMHSMDPQLERQVETIRNLVDSYMAIVNKTVRDLMPKTIMHLMINNTKEFIFSELLANLYSCGDQNTLMEESAEQAQRRDEMLRMYHALKEALSIIGDINTTTVSTPMPPPVDDSWLQVQSVPAGRRSPTSSPTPQRRAPAVPPARPGSRGPAPGPPPAGSALGGAPPVPSRPGASPDPFGPPPQVPSRPNRAPPGVPSRSGQASPSRPESPRPPFDL
Question: With B1 as the binder, how does the binding read?
Answer: Its binding is “binds”.
